The list shows a part of the results.

Sequences of proteins named here, by UniProt entry; tags and fusion partners are left off.
UniProt Q0JBA9, entry or part of it: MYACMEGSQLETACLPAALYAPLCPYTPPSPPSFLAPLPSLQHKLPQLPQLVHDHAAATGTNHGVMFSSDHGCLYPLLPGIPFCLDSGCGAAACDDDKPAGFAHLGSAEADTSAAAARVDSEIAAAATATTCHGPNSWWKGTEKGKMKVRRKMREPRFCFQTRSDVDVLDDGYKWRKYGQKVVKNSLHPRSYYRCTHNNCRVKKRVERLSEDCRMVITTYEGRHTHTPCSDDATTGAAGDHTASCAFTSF

In the assay the target is OsWRKY34 (Oryza sativa, UniProt Q0JBA9 1-250). In words: protein-binding microarray (RPBM); PBS, 2% BSA, 51.3 ng/ul salmon testes DNA, 50 uM zinc acetate, 200 nM TF, 25 C, 1 h; high values mean tight binding. The settings on record: protein: recombinant; tags: N-terminal polyhistidine and DsRed monomer fusion (pET32a); label: CyDye5-dUTP incorporated in the synthesized complementary strand; 3' TTTTT single-stranded linker to array surface; dsDNA, one strand shown. An outline of the steps:
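Transcription factors, each fused N-terminally to a polyhistidine tag and DsRed, were expressed in E. coli BL21-CodonPlus and purified on Ni–NTA. A custom Agilent array was made double-stranded by primer extension with Cy5-dUTP and blocked with 2% BSA. It was incubated with 200 nM protein in PBS, 2% BSA, salmon testes DNA and 50 µM zinc acetate at 25 °C for 1 h, then washed. The binding signal is per-feature fluorescence intensity (arbitrary units) read on an Axon 4000B scanner.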
For “ACGTGATTGATGGATGGAGCTAACCGCGCGTGCCCGACACCGGAGTCACCTAGTGCAG”, the binding signal is 8340 fluorescence intensity (a.u.). As for “TTCCTTGTCTCCTACTGCTTACTCCCTCCGTCTCAAAATACGGAGTCACCTAGTGCAG”, the figure is 8510 fluorescence intensity (a.u.); as for “ATCCACCTAACAAGTTTATGTACCACCAATGCAATTTACTCGGAGTCACCTAGTGCAG”, 8780 fluorescence intensity (a.u.).

As to “CCTTTTCTTTCACCTTTCTCACCTGCCGGTCTCCCTCGAGCGGAGTCACCTAGTGCAG”, the binding signal was 8220 fluorescence intensity (a.u.).

On to “CAGTAACCAACGCTCATTCCTATACTACTGTACCTGCCAACGGAGTCACCTAGTGCAG”, for which the binding signal is 11100 fluorescence intensity (a.u.).

“CATGCTTCTATTTGATTGACCTTCATCCTCATGTTAACCTCGGAGTCACCTAGTGCAG”: the binding signal was 11600 fluorescence intensity (a.u.). Consider “ATATGCCCACCCAAGGGTTTTTTCCCCTGGAACGCGCTGCCGGAGTCACCTAGTGCAG”, for which the binding signal was 8130 fluorescence intensity (a.u.). Take “TCCCTGAACGGGTTGCATGTGCATGTTTCTTCTCTTCTTCCGGAGTCACCTAGTGCAG”: the binding signal was 10600 fluorescence intensity (a.u.).

With “GAATCCTACTTCTCGCAGGGGCAATCTTGTACTCACAAAACGGAGTCACCTAGTGCAG”, the binding signal was 9360 fluorescence intensity (a.u.). “TTTTTATATTATTTATACTCCTTCCCTTTTACGTTTCATACGGAGTCACCTAGTGCAG”: the binding signal was 9280 fluorescence intensity (a.u.). As for “GCATAACTAATGGTCTGTTTACTTTGATGGCATTTTCAATCGGAGTCACCTAGTGCAG”, the binding signal was 9570 fluorescence intensity (a.u.). “CCTTGTTTGGCAAAGCTCATGTCCTGGCCCATATGATATACGGAGTCACCTAGTGCAG”: the binding signal is 8340 fluorescence intensity (a.u.).

“TTCTTCTTGGTGGTGGTGGGGCCTGGAAACTATGTGACTTCGGAGTCACCTAGTGCAG”: the binding signal was 18200 fluorescence intensity (a.u.). Take “CAAGGTTTGTTTTCTTATCAGTTACTACTGCTTTTGTGGTCGGAGTCACCTAGTGCAG”: the binding signal was 11100 fluorescence intensity (a.u.). On to “TGTAAGAGGTGTGTAACTCGCCAGTTTTGCTTCAACCACACGGAGTCACCTAGTGCAG”, for which the binding signal is 8890 fluorescence intensity (a.u.). As to “TCGTCAGTTTTTTTTCATCTCATTTTAGCACTACTTCGACCGGAGTCACCTAGTGCAG”, the binding signal was 9590 fluorescence intensity (a.u.).

Turning to “GGTGTGCTGAACTTGTGGAGTAACTTTTTTCTGGATTCCTCGGAGTCACCTAGTGCAG”, the binding signal was 8420 fluorescence intensity (a.u.). With “CCTGGGGAGGGTACTCCTCCGTATTTAGCCTCGGTTGTATCGGAGTCACCTAGTGCAG”, the binding signal is 8790 fluorescence intensity (a.u.). As for “GACCACACAGCACCAACCAACTAAACCACCACCACCACCACGGAGTCACCTAGTGCAG”, the binding signal was 8500 fluorescence intensity (a.u.). As for “CACCAACCTTGCTAGCACTATATATCTAGGCGTCAATTGACGGAGTCACCTAGTGCAG”, the binding signal was 8090 fluorescence intensity (a.u.). Take “ATTTCAGACTAGGTACTTTTGTTATTTTAATTTACTTTGGCGGAGTCACCTAGTGCAG”: the binding signal is 8920 fluorescence intensity (a.u.). In the case of “TGTGTTCCTTTAGTTCTCTTCACACGCATTACTTAGGCCACGGAGTCACCTAGTGCAG”, the binding signal is 9080 fluorescence intensity (a.u.).

As to “TGGCAGGCAGGGGTGGCTTCGCGGTGGGCAGCAGCGGCTTCGGAGTCACCTAGTGCAG”, the binding signal is 8650 fluorescence intensity (a.u.). Take “GGATCACGCATTTGACTTTGCCTTTTTTTTCGACTTCTTGCGGAGTCACCTAGTGCAG”: the binding signal is 12100 fluorescence intensity (a.u.). In the case of “GTCAAACGTTGGACACGGATTTCTACGGCTGCACTTATTTCGGAGTCACCTAGTGCAG”, the binding signal is 8192 fluorescence intensity (a.u.). As for “AGCGAACGTGGTTATGTATTTTTGGCTTGGACTATTTTTTCGGAGTCACCTAGTGCAG”, the figure is 9120 fluorescence intensity (a.u.); as for “TAAGTATTTCCTTTCTTTGCATTTTACCGCCTTGCTATTTCGGAGTCACCTAGTGCAG”, 8200 fluorescence intensity (a.u.). Take “CTCTCACACACTTCACTCGGTCTTCCTCTTCTTCTTCTTTCGGAGTCACCTAGTGCAG”: the binding signal is 12300 fluorescence intensity (a.u.). Regarding “GATAGGGTTAGGGTTAGGGTTTTCCCTGGTCCGCATCTTCCGGAGTCACCTAGTGCAG”, the binding signal was 9320 fluorescence intensity (a.u.). On to “GTTCTCGATGTGTTCTAAAATTTTGTTGTTTATAATTTTTCGGAGTCACCTAGTGCAG”, for which the binding signal was 8190 fluorescence intensity (a.u.). Turning to “CGGTCGACCCACCGTCTGCCACGTCAGCTTGCCGCCCACCCGGAGTCACCTAGTGCAG”, the binding signal is 10100 fluorescence intensity (a.u.). Take “CATTAGAGTCTTGTTTTAGTTGCTGATCATATTCTCCTTTCGGAGTCACCTAGTGCAG”: the binding signal is 13200 fluorescence intensity (a.u.). Regarding “TGCTGGTGGTGGTGGTGGGGATCGAGCCGCTCGCTTCGACCGGAGTCACCTAGTGCAG”, the binding signal is 11700 fluorescence intensity (a.u.). Turning to “ATCTGAGCCACACATCCGCTGAAATAACCGTGCAGTTTCACGGAGTCACCTAGTGCAG”, the binding signal is 10800 fluorescence intensity (a.u.). On to “GTGGACGTTTTTGACTTTGTACTTTCAACGTTTGACCATTCGGAGTCACCTAGTGCAG”, for which the binding signal was 13900 fluorescence intensity (a.u.).

As to “CTCGCCCATTCTACTTCCATTCTCTTCACACCATCACATGCGGAGTCACCTAGTGCAG”, the binding signal is 10100 fluorescence intensity (a.u.). Take “TCTCGTTCATCCTCTCCCTGTCAATTGTCGCGAGTCTTCTCGGAGTCACCTAGTGCAG”: the binding signal was 8620 fluorescence intensity (a.u.). As for “CAGCCATAAACATTGTCCATTTGTCCTTGTAAATCAATCGCGGAGTCACCTAGTGCAG”, the figure is 8270 fluorescence intensity (a.u.). For “ACAGCCATGGTCGGACCGATCTTATCTGCAAACGCCCATGCGGAGTCACCTAGTGCAG”, the binding signal is 8820 fluorescence intensity (a.u.).

Regarding “TCGCACAGCATTCATTGAGGACTTCTTTTCCACTGATCCTCGGAGTCACCTAGTGCAG”, the binding signal was 8080 fluorescence intensity (a.u.). As for “TTCATGCAGCTCTACGTCGCCATCTTTTGTATAGAAAATTCGGAGTCACCTAGTGCAG”, the figure is 8280 fluorescence intensity (a.u.). As for “CATATCCCGACTTTGTGCAGTCTGTAATTGTGCTATGTTACGGAGTCACCTAGTGCAG”, the figure is 8710 fluorescence intensity (a.u.).

With “CCAATCATCACTATTCTCCTTTACCTACTTTTACTTATCACGGAGTCACCTAGTGCAG”, the binding signal was 8240 fluorescence intensity (a.u.). On to “GTTCTTGTAGTATACGTAGCTAGCTAGGTGGTGTGGTGTACGGAGTCACCTAGTGCAG”, for which the binding signal is 8900 fluorescence intensity (a.u.). For “TAACTTCTCAACTTTTTCACCATCTAAACACAGTCTTCATCGGAGTCACCTAGTGCAG” the value was 8400 fluorescence intensity (a.u.); for “CCTACCCTTCCCGGTAACTTATTTATCCTCCCAAATCCTCCGGAGTCACCTAGTGCAG”, 9350 fluorescence intensity (a.u.). Turning to “ACATAATTAGTTTATCTCTCCTCAAGCTGGTGCATCTCTCCGGAGTCACCTAGTGCAG”, the binding signal is 8190 fluorescence intensity (a.u.). Turning to “CTCTCTTATCTTCTCTTCTTTCTCCCTTGTGCATGCGGAGCGGAGTCACCTAGTGCAG”, the binding signal was 10500 fluorescence intensity (a.u.).

On to “AGATGCCTCGTGCTAGGTTTGATTGGTTGGTTGGTTGGTACGGAGTCACCTAGTGCAG”, for which the binding signal is 19400 fluorescence intensity (a.u.).

On to “ACTGCCACGCGTACGCCATGTAGACCAAAACCACCGTGGACGGAGTCACCTAGTGCAG”, for which the binding signal was 8110 fluorescence intensity (a.u.).

As for “AAATTTCTCATGGACTGTTATCTGCTTGTTCTGCTTGAAACGGAGTCACCTAGTGCAG”, the binding signal was 9720 fluorescence intensity (a.u.). Turning to “CATCTATTCTTTTGTACTCTGTGATTTTCTATATCAATCTCGGAGTCACCTAGTGCAG”, the binding signal is 8650 fluorescence intensity (a.u.). With “AATTATTCCGGGCTTGGGACGTTGTAAAAAACATAAAATTCGGAGTCACCTAGTGCAG”, the binding signal is 8770 fluorescence intensity (a.u.). For the sequence “TACGATTTCTATTATTTCCAAATCAAATTGCCCCACTATTCGGAGTCACCTAGTGCAG”, the binding signal was 8500 fluorescence intensity (a.u.).

For the origin of these results see article PMC7819943, “Rice protein-binding microarrays: a tool to detect cis-acting elements near promoter regions in rice”.
